Library screening results

Measurements from “University of Dundee, Small-Polar-MMV Screening Library” (2021), ChEMBL document CHEMBL3988442.

Each number is a percent effect as filed.
How 0% and 100% were set is not recorded. Most values in the screen are low, and negative values occur.
Compounds were drawn at random from those tested, without regard to their results.
Two or more numbers in one place are separate tests of the same structure; such repeats can differ widely.

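Viability assay of Plasmodium falciparum sporozoites; the read-out is not stated. The concentration is filed as 10 mM, unlikely as a test dose, so the dose is not known. Direction is inferred from retests: higher values go with lower viability. Strong results were mostly tested again. Size under these conditions: about 34,000 compounds, about 280 of them at 50% or above in at least one test.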

* CC(C)NS(=O)(=O)c1cc(C(=O)O)cc(-c2ccc(CN(C)C)cc2)c1 | 12.92%
* CNC(=O)C(CC(C)C)NC(=O)c1cccc(-c2nc(C)cs2)c1 (stereo not shown) | 9.878%
* COc1ccc(NC(=O)c2ccco2)c(N2CCN(C(C)=O)CC2)n1 | -9.989%
* O=C1CCC2(CCCN(CCn3cc(Cl)cn3)C2)CN1C1CCCC1 (stereo not shown) | -2.328%
* CN1CCCC2(CCN(C(=O)c3ccncc3)C2)C1 (stereo not shown) | -19.38%
* O=C(O)C(F)(F)F.[H][C@@]12C[C@H](C(=O)N3CCN(C)CC3)[C@@]([H])(CN(S(=O)(=O)CC(C)C)C1)O2 | -0.3466%
* N#Cc1ncn(CC(=O)Nc2cc(Cl)ccc2F)n1 | -24.04%
* CN(C)c1cccc(C(=O)N2CCn3c(nnc3C3CC3)C2)c1 | 2.438%
* CCCNCc1cc2c(C)cc(C)cc2n2c(=O)n(C)nc12 | 2.488%
* CN1C(=O)CC(c2cnn(C)c2)C12CCN(C(=O)c1cscn1)CC2 (stereo not shown) | -4.162%
* CC(NC(=O)NCCN1CCCCCC1=O)c1nncn1C (stereo not shown) | 0.613% & 0.4177% & -3.383%
* CC(C)COCC(NC(=O)Cc1ccn[nH]1)c1ccco1 (stereo not shown) | -3.671%
* CCCS(=O)(=O)N1CCN(Cc2ccco2)CC1.O=C(O)C(=O)O | 2.877%
* CC(CO)(NC(=O)Nc1nnc(C2CC2)s1)C1CCCCC1 (stereo not shown) | 7.898%
* CN1CCC(NC(=O)C2CN(c3cncnc3)CCO2)CC1 (stereo not shown) | 3.09%
* [H][C@]12CN(CC3CC3)C(=O)[C@@]1([H])CN(S(=O)(=O)C1CC1)C2 | 4.506%
* CC(=O)NC1CCCN(Cc2ccn(C)c(=O)c2)C1 (stereo not shown) | 12.47%
* CC(=O)N1CCCC(c2nccnc2-c2ccc(CO)cc2)C1 (stereo not shown) | 0.8117%
* O=c1c2cccnc2cnn1CC(O)c1cccc(Cl)c1 (stereo not shown) | -6.311%
* COCc1ncc(CN2CCC(Oc3ccccc3OC)CC2)cn1 | 8.836%
* [H][C@]12CCN(C(=O)NCc3ccccc3)C[C@@]1([H])OCCN(CC)C2 | 10.94%
* CC(C)C[C@@H](C(N)=O)n1cc(-c2cncnc2)nn1 | -15.23%
* CCc1nc(C2CCCN2CCCS(=O)(=O)c2ccccc2)no1 (stereo not shown) | 11.92%
* CCC(C)S(=O)(=O)N1CCc2nc(C3CCNCC3)ncc2C1.Cl (stereo not shown) | 0.9993%
* COc1ccc(S(=O)(=O)N2CCc3ccc(Cl)cc32)cc1C(=O)O | 3.286%
* O=C1CC(c2ccncc2)c2c(c(C(=O)O)cn2-c2ccc(F)cc2)N1 (stereo not shown) | 3.289%
* Cc1cccc(CN2CCCCC2c2n[nH]cc2-c2cc(C)no2)c1.Cl (stereo not shown) | -21.49% & -8.887% & 2.992%
* O=C(O)C(F)(F)F.[H][C@@]12COC[C@]1([H])[C@@H](OC)CN2Cc1ccc(CC)o1 | 16.29%
* Cc1nc(C2(O)CCCNCC2)sc1CCOc1ccc(F)cc1.Cl (stereo not shown) | 13.05%
* Cc1nn(C)cc1-c1cc(C(F)F)n2nc(CCC(=O)O)nc2n1 | 5.263%
* Cc1ccc(N2CCC3(CCCN(C(=O)c4cnccn4)C3)C2)nn1 (stereo not shown) | -22.15%
* Cc1cnn(CC2CCCN2Cc2nccn2C)c1 (stereo not shown) | -16.47%
* Cc1cccnc1NC(=O)CSc1ccc2c(c1)OCCO2 | -20.6%
* O=C(O)C(F)(F)F.[H][C@@]12CCN(CC3CC3)[C@@]1([H])CCN2C(=O)c1cccc(Cl)c1 | 12.24%
* COc1ccc(NC(=O)C(c2cccc(F)c2)N2CCOCC2)cc1 (stereo not shown) | -18.38%
* CC(C)c1nc(C2CCCN2C(=O)c2cnc[nH]2)no1 (stereo not shown) | 0.08354%
* Cc1nc(C)n(CC2CCCN(Cc3cccc(C(N)=O)c3)C2)n1 (stereo not shown) | 7.951%
* CCC(=O)N1CCC2(CC1)COc1ccccc1S(=O)(=O)N(C)C2 | 2.537%
* Cc1ccc2cc(CNCCN3CCCC3)c(=O)[nH]c2c1 | 5.33%
* COc1ccccc1CNc1c(O)c(=O)c1=O | 4.632%
* O=C(NCCOCC1CC1)Nc1ccc(F)cc1 | 5.943%
* CCOC(=O)CC(NC(=O)c1cn(Cc2ccccc2F)nn1)C(C)C (stereo not shown) | -24.26% & -23.87%
* O=C(O)C(F)(F)F.O=C(O)C(F)(F)F.[H][C@]12CCN(Cc3ccccn3)[C@@]1([H])CC[C@H](COCC1CCOCC1)O2 | -1.269%
* Cc1cnn(CC2CCCN2Cc2nnc(-c3ccccc3)o2)c1 (stereo not shown) | -3.398%
* Cc1nccc(C(=O)N2CCCC2c2noc(C(C)C)n2)n1 (stereo not shown) | -7.596%
* CCS(=O)(=O)NCCN1CCN(C(C#N)c2ccccc2)CC1 (stereo not shown) | -5.586%
* NCC(=O)N1CCC(c2cccc(Oc3ccccc3)n2)CC1 | 0.8117%
* CCCC(C)N(C)C(=O)c1nc(S(C)(=O)=O)n2ccccc12 (stereo not shown) | 7.522%
* Cc1cccc(C2CCCN2S(=O)(=O)N(C)C)n1 (stereo not shown) | 1.841%
* Cc1cc(C)c2ncc(C#N)c(N3CCS(=O)(=O)CC3)c2c1 | -5.085%
* O=C(O)C(F)(F)F.O=C(O)C(F)(F)F.[H][C@@]12CO[C@@H](CN(C)C)[C@]1([H])CCN(Cc1ccc(C)o1)C2 | 8.773%